The target of the assay is Th (endogenous, mouse brain) (mouse (endogenous in brain tissue)) (UniProt P24529). The experiment in a line: co-IP.

By UniProt entry, the sequences of proteins in these tests, tags left out.
UniProt P24529: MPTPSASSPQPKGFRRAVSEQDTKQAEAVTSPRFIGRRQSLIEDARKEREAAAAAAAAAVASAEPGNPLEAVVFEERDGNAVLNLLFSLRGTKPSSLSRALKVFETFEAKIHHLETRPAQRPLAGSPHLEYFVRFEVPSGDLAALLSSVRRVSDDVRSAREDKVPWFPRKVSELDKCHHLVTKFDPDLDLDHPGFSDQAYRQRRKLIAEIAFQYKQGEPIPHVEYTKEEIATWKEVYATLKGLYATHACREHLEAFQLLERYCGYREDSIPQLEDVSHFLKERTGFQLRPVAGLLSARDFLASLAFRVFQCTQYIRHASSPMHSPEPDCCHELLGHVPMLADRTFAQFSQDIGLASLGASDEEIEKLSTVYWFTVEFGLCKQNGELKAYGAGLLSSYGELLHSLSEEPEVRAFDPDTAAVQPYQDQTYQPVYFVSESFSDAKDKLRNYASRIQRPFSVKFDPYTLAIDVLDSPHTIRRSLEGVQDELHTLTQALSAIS

No constants are given. Whether binding was seen depends on the method and setting. Binding seen in cells or lysates may run through a third protein. Some binding calls cover weakened binding; strength is not graded here.

This is an account of results in doi:10.1101/2024.07.06.602343.

B1: Dnajc12 (endogenous, mouse brain) (protein, UniProt Q9R022 1-198)
chain: MDAILNYRPEGSEDYYALLGCDELSSVEQILAEFKIRALECHPDKHPENSKAVETFQKLQKAKEILCNAESRARYDHWRRSQMSMPFEQWEALADSVKTSMHWAVRSKKDLMLEGSGQTFTSSVPNKERSEQRETKKGDPDSNPEKMKQKEPKFPEEGISPQNPDSPGLSDLNCGHLRFRWSGDAPSELLRKFRNYEI
As to B1, the binding entry is given as “binds”.
